Reference: PMC5442318, “Hundreds of dual-stage antimalarial molecules discovered by a functional gametocyte screen” (Nature Communications, 2017)

Each compound was assayed on HepG2 cells (assay: HepG2 cytotoxicity assay). Details: HepG2 TOX50 versus Pf FGAA IC50.
Format: cell-based
Method in brief: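 Once incubation ended, the HepG2 plates were warmed to room temperature for 30 min alongside the CellTiter-Glo reagent. Luminescent signal was developed by reagent addition and stabilized for 10 min before plate reading.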
`O=C(Nc1nc(-c2ccccn2)cs1)c1ccc(S(=O)(=O)N2CCc3ccccc32)cc1` [TCMDC-125432] gave a Selectivity ratio of 27.41. Compound `Br.Oc1ccc(CCNCCCCCCNCCc2ccc(-c3ccccc3)cc2)cc1O` [TCMDC-131268] has a Selectivity ratio of 1.21. With `CCc1ccccc1-c1csc(C(=O)NCC2CCN(Cc3ccc(C(C)(C)C)cc3)C2)c1.O=C(O)C(F)(F)F` (centres unmarked) [TCMDC-134448] the Selectivity ratio was 6.39. With `COc1ccc2nc3cc(Cl)ccc3c(N)c2c1.Cl` [TCMDC-125835] the Selectivity ratio was 2.32. `CC(C)(C)c1ccc(CN2CCC(CNC(=O)c3cc(-c4ccccc4F)cs3)C2)cc1.O=C(O)C(F)(F)F` (centres unmarked) [TCMDC-134443] was tested, and the Selectivity ratio was 11.22. `O=C(NCC1CCN(Cc2cccc(C(F)(F)F)c2)C1)c1cc(-c2cccc(F)c2)cs1.O=C(O)C(F)(F)F` (centres unmarked) [TCMDC-134484] gave a Selectivity ratio of 8.35. `CC(C)(C)c1ccc(CN2CCC(CNC(=O)c3cc(-c4cccc(C(F)(F)F)c4)cs3)C2)cc1.O=C(O)C(F)(F)F` (centres unmarked) [TCMDC-134442] showed a Selectivity ratio of 6.75. With `O=C(Nc1cccc(-c2cccc(-c3nc4cc(C(F)(F)F)ccc4[nH]3)c2)c1)Nc1ccc(F)c(F)c1F` [TCMDC-133229] the Selectivity ratio was 2.46. `CNCCNCc1ccc(-c2ccc(-c3nc4cc(C(F)(F)F)ccc4[nH]3)s2)cc1.O=C(O)C(F)(F)F` [TCMDC-132838] showed a Selectivity ratio of 4.75. `COc1ccc(CNC2Cc3ccccc3C2)cc1-c1ccc(OC)c(S(=O)(=O)NCCN2CCCC2)c1.O=C(O)C(F)(F)F` [TCMDC-132251] showed a Selectivity ratio of 2.65.

Same assay, conditions: HepG2 TOX50 vs Pf FGAA IC50
In the case of `CN(CCCNCc1ccc2ccccc2c1)CCCNCc1ccc2ccccc2c1.Cl` [TCMDC-137908], the Selectivity ratio is reported as 57.08. Compound `c1cc(Nc2nc(-c3ccc(-c4csc(Nc5ccncc5)n4)cc3)cs2)ccn1` [TCMDC-139725] has a Selectivity ratio of 77.95. `COc1cc(/C=C(\C2=NC(=O)CS2)c2nc3cccnc3n2C)ccc1O` [TCMDC-135917] gave a Selectivity ratio of 29.44. `Cl.Clc1ccc(CNCCCCCCCNCc2ccc(Cl)c(Cl)c2)cc1Cl` [TCMDC-138075] was tested, and the Selectivity ratio was 6.57. For `CCn1c(-c2nonc2N)nc2c(-c3cccc(NC(=O)Nc4ccc5c(c4)CCC5)c3)ncc(OCCCN)c21.O=C(O)C(F)(F)F` [TCMDC-136191], the Selectivity ratio was 7.20. With `COc1cc2nc(N3CCN(C(=O)c4c(Cl)nsc4-c4ccccc4Cl)CC3)nc(N)c2cc1OC.O=C(O)C(F)(F)F` [TCMDC-138186] the Selectivity ratio was 5.94. In the case of `COc1ccc2nc(-c3ccccc3)cc(NCCCNc3cc(-c4ccccc4)nc4ccc(OC)cc34)c2c1.Cl` [TCMDC-137734], the Selectivity ratio is reported as 12.64. Compound `CC(Cc1ccc(NC(=O)c2ccc(CC(C)NCc3ccc(Cl)cc3)cc2)cc1)NCCc1cccc(Cl)c1` (centres unmarked) [TCMDC-139810] has a Selectivity ratio of 4.67. In the case of `COc1ccc2nc(N=C3NC4(c5ccccc5)NC(=Nc5nc6ccc(OC)cc6[nH]5)NC4(c4ccccc4)N3)[nH]c2c1.O=C(O)C(F)(F)F` (centres unmarked) [TCMDC-139632], the Selectivity ratio is reported as 529.58. With `Cc1oc(-c2ccc(Cl)cc2)cc1C(=O)NCCC1CCN(CCCCCNC(=O)/C=C/c2ccc(Cl)c(Cl)c2)CC1` [TCMDC-140009] the Selectivity ratio was 1.80. For `Nc1nc(N)c2c(ccc3c2ccn3Cc2cccc(F)c2)n1` [TCMDC-137810], the Selectivity ratio was 0.0444. `COc1ccc2ccc(OC)c(CNCCCCCCNCc3c(OC)ccc4ccc(OC)cc34)c2c1.CS(=O)(=O)O` [TCMDC-137796] gave a Selectivity ratio of 2.73. `O=C(NCCCCN1CCC(c2ccc3c(c2OCCN2CCCC2)CCCC3)CC1)c1ccc(-c2ccc(C(F)(F)F)cc2)cc1` [TCMDC-138768] gave a Selectivity ratio of 2.72.
